Test results as given in the supplement of paper PMC10849652.
The list shows a part of the results.

Chains of the proteins cited; added tags and fusions are not shown. Lines headed by an entry give the natural chain unless they say otherwise; changes in a name come on top.
UniProt Q8NB49: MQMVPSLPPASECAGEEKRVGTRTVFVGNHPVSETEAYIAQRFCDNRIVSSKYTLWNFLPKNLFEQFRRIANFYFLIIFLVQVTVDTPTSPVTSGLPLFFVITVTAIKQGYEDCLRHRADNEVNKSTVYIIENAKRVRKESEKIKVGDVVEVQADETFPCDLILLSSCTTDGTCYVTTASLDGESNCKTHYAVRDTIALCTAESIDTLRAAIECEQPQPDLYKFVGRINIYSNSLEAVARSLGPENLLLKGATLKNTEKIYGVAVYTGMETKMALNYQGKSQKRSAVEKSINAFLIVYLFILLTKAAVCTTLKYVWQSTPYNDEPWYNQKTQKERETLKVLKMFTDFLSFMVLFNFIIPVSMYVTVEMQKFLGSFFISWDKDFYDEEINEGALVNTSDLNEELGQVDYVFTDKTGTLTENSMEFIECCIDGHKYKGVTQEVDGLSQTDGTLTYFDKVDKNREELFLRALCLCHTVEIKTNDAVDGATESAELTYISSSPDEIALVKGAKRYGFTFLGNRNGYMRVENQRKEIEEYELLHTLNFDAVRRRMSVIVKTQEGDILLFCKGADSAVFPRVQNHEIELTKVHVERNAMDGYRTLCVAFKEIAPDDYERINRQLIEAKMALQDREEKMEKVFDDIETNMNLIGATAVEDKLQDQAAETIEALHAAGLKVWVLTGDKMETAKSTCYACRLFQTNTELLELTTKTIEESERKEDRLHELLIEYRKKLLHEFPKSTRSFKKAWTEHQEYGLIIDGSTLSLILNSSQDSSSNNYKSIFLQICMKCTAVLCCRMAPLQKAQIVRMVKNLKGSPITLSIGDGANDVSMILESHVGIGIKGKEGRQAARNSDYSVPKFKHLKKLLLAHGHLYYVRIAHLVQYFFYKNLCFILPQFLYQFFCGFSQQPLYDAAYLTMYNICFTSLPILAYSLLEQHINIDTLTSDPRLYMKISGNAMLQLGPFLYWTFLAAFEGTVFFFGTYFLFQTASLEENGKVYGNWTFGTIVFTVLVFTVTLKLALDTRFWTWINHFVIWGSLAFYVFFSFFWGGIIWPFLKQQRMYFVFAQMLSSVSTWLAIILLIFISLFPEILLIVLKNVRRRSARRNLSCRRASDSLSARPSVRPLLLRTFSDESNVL
UniProt O75947: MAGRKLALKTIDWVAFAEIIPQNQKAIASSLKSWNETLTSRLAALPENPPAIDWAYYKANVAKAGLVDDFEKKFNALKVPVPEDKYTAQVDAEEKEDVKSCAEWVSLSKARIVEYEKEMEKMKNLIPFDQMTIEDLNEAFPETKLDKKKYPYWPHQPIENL
UniProt Q8N5M1: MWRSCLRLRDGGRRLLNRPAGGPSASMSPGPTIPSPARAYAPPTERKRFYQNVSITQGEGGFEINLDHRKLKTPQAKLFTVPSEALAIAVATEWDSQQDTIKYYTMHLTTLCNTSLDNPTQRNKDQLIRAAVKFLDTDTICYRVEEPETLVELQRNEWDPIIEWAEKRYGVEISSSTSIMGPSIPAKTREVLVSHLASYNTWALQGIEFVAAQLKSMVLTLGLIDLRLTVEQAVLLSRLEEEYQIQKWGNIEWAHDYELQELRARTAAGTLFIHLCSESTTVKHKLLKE
UniProt Q9NVT9: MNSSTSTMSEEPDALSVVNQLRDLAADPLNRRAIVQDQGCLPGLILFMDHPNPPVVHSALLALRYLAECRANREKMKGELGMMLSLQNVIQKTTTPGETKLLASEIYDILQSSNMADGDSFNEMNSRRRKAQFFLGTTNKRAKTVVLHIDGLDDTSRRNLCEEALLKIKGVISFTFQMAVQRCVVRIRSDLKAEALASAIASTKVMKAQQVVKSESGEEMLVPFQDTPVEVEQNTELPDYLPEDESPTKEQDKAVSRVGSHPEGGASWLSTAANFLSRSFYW
UniProt Q13315: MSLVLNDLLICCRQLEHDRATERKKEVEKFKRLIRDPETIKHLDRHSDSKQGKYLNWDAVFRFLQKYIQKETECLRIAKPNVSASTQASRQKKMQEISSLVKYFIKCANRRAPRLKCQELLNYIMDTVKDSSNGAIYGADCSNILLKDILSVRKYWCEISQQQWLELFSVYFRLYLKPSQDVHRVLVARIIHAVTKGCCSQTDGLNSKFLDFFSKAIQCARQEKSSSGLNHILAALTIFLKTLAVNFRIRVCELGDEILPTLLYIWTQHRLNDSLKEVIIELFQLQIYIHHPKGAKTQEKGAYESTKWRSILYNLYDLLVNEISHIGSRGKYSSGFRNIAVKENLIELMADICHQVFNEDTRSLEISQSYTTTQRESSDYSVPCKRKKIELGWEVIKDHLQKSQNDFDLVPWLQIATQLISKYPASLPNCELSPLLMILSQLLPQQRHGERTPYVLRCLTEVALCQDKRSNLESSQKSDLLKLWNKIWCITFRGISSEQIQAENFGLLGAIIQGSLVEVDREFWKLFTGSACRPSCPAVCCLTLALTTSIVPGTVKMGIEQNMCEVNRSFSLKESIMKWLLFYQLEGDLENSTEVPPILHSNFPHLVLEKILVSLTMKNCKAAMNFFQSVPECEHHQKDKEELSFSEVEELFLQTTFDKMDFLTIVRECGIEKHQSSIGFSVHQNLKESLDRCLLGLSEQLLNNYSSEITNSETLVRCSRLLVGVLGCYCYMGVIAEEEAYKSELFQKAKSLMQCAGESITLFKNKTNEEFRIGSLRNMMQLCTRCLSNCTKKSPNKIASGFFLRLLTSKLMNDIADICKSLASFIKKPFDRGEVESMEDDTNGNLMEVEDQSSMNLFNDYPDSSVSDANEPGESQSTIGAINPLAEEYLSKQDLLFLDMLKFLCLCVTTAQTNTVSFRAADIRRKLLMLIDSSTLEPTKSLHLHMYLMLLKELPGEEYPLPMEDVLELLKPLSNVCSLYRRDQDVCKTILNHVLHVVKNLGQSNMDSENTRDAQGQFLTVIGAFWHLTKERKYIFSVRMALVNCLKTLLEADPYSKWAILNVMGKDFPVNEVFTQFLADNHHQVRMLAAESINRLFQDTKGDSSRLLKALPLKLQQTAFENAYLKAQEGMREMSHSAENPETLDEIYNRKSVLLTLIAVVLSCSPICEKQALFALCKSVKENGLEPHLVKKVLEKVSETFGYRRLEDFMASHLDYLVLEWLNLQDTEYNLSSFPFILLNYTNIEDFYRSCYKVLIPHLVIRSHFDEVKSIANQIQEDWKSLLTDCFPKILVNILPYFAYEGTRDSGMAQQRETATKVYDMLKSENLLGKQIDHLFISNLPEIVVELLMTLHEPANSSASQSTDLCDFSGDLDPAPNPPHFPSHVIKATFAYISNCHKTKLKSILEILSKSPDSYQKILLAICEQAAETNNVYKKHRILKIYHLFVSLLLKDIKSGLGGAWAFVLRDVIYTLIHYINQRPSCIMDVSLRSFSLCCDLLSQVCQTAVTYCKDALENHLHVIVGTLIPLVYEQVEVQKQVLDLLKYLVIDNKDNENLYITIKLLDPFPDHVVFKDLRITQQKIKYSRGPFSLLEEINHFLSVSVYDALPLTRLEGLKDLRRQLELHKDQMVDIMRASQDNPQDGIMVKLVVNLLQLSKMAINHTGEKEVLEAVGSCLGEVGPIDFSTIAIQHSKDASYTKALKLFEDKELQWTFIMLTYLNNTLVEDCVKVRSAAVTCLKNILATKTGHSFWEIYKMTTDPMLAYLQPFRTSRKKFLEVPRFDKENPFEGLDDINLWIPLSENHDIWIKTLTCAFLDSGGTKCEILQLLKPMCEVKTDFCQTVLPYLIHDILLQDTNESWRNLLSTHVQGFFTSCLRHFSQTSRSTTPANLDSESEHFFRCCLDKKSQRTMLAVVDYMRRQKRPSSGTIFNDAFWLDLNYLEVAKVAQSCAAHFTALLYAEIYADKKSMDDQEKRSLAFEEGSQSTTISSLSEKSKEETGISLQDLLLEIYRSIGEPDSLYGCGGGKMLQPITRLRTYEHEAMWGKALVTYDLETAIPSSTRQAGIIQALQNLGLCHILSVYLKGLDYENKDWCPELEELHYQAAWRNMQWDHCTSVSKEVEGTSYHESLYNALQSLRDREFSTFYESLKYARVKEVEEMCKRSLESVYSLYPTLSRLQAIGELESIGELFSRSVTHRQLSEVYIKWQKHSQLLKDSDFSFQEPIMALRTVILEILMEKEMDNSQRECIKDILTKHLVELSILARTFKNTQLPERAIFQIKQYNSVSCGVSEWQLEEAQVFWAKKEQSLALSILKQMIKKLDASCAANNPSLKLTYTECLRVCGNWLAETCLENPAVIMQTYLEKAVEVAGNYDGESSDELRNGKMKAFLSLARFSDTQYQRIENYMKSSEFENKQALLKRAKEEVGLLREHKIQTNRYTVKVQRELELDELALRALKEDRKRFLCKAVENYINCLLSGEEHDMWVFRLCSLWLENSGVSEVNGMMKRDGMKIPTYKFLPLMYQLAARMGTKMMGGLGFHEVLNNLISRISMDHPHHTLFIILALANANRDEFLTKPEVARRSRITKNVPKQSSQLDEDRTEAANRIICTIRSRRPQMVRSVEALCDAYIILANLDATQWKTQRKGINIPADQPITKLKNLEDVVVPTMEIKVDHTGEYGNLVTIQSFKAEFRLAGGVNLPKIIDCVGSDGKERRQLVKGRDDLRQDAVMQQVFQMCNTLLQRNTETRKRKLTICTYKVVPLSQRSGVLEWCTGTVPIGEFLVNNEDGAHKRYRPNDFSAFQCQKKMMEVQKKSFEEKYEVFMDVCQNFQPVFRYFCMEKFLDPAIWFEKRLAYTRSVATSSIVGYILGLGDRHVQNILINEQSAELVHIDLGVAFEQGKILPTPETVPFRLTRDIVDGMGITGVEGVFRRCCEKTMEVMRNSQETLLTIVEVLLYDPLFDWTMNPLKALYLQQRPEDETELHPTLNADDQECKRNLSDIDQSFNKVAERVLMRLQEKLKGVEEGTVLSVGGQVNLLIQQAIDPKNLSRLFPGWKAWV
UniProt P15336: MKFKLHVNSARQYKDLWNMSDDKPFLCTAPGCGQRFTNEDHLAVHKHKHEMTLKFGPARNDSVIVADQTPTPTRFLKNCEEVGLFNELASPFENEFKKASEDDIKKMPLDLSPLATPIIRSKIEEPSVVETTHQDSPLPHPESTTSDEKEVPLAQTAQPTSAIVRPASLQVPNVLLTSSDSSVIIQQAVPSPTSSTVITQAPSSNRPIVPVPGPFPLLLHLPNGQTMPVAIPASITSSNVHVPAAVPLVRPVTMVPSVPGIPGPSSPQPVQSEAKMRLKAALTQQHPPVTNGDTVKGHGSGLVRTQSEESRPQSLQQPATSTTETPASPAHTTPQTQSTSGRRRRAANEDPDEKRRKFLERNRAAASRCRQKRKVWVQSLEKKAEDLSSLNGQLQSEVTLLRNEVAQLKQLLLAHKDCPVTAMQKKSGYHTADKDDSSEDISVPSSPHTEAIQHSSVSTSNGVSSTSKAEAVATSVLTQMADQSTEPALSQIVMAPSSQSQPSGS
UniProt P30049: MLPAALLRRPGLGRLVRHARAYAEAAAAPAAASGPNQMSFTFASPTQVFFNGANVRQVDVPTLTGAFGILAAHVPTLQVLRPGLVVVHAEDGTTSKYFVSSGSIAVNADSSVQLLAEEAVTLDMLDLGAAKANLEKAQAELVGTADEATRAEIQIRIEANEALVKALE
UniProt O95260: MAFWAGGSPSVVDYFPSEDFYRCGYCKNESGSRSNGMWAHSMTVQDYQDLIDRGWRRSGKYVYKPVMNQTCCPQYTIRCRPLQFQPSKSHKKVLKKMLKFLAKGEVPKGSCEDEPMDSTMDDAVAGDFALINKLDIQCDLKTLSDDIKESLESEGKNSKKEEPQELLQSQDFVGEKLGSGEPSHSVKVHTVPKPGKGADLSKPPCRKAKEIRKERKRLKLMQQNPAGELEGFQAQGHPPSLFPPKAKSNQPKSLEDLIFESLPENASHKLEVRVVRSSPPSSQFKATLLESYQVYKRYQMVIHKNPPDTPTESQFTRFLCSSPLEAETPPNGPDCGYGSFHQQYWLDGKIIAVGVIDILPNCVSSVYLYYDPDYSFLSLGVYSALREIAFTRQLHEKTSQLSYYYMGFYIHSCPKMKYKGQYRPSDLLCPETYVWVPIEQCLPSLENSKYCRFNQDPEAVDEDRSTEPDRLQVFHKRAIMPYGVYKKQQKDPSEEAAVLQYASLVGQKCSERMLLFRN
UniProt O75964: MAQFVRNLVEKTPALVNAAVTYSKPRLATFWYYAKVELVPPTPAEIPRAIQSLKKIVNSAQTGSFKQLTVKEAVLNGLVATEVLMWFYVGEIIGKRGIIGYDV
UniProt P14415, whole entry, looked up: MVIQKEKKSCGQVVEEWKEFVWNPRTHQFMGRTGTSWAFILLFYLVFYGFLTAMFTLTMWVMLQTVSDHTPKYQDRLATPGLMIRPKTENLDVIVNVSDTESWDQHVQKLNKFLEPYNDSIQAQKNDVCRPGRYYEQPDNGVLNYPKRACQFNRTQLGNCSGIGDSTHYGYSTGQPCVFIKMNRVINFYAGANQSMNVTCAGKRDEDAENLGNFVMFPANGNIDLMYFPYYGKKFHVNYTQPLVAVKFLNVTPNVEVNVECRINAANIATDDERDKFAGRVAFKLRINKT

Compound: c1cn2cc(-c3ccc4cn[nH]c4c3)nc(Nc3ccc(N4CCOCC4)cc3)c2n1 [entospletinib]
Test: log2 fold change, soluble protein after heating vs DMSO (PISA); higher = thermal stabilisation; K562 cells, 10 uM, 30 min; active = over 0.2 and 3.5 SD of the protein, either way, in both replicates (recomputed)
Method in brief: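 Quantification of soluble protein used TMTpro 16plex LC-MS/MS, with channel sums equalised. Samples were the supernatant after 21,000xg for 90 min of pooled aliquots from K562 cells (2×10^6 cells/mL) treated with 10 μM compound for 30 min, heated for 3 min over 48°C-58°C, and extracted in PBS with 0.5% NP-40 at 4°C. Values, from duplicates, describe thermal stability against control samples on a log2 fold-change scale.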

log2 fold change, inactive:
ATP11C (UniProt Q8NB49) -0.028
ASCC1 isoform 2 (UniProt Q8N9N2) -0.049
ATP5PD (UniProt O75947) -0.011
ARPC3 (UniProt O15145) 0.096
ATPAF2 (UniProt Q8N5M1) 0.001
ATG13 isoform 5 (UniProt O75143) 0.029
ATP1B1 (UniProt P05026) 0.032
ARL5A (UniProt Q9Y689) 0.071
ARMC1 (UniProt Q9NVT9) -0.064
ATM (UniProt Q13315) 0.06
ARPC2 (UniProt O15144) -0.021
ATF2 (UniProt P15336) -0.06
ATP5F1D (UniProt P30049) -0.031
ASPM (UniProt Q8IZT6) 0.057
ARPC1B (UniProt O15143) -0.038
ATG14 (UniProt Q6ZNE5) -0.082
ATE1 (UniProt O95260) -0.085
ATP5MG (UniProt O75964) 0.099
ATP13A1 (UniProt Q9HD20) 0.004
ATP1B2 (UniProt P14415) -0.042
ATP6V1E1 (UniProt P36543) 0.012
ATG2B (UniProt Q96BY7) -0.008
ARPC4 isoform 3 (UniProt P59998) -0.028

A run of entries from further up, as a working copy:
log2 fold change, inactive:
ASPM (UniProt Q8IZT6) 0.057
ARPC1B (UniProt O15143) -0.038
